Values quoted from earlier work as cited in US20120094963A1, “TARGETING PRODRUGS AND COMPOSITIONS FOR THE TREATMENT OF GASTROINTESTINAL DISEASES” (of Queen Elizabeth near Dublin, priority 2008, published 2012).
Read-outs that look alike come from different tables or passages of the source. For at least one compound, name, drawing or mass did not settle the structure.

How the values were obtained:
small intestinal polyps = settings: APCmin mice, cited from earlier work
colorectal polyps = settings: cited from earlier work; for mean reduction in the number of rectal polyps: intention-to-treat; for reduction from base line in the number of colorectal polyps: FAP patients
intestinal polyps = settings: 300 ppm; min mice; cited from earlier work

Cc1ccc(-c2cc(C(F)(F)F)nn2-c2ccc(S(N)(=O)=O)cc2)cc1 [celecoxib]
inhibition of total polyp number (small intestinal polyps; celecoxib alone): 78% | polyps >2 mm in diameter (small intestinal polyps; celecoxib as a single agent): no polyps >2 mm in diameter were observed | reduction in the number of 1- to 2-mm polyps (small intestinal polyps; celecoxib as a single agent): 80% | reduction in the number of <1-mm polyps (small intestinal polyps; celecoxib as a single agent): 60% | patients with a reduction of 25 percent or more in the mean number of colorectal polyps (colorectal polyps; 100 mg twice daily): 31% | mean reduction in the number of rectal polyps (colorectal polyps; 100 mg twice daily): 3.4% | patients with a reduction of 25 percent or more in the mean number of colorectal polyps (colorectal polyps; 400 mg twice daily): 53% | mean reduction in the number of rectal polyps (colorectal polyps; 400 mg twice daily): 22.5% | reduction from base line in the number of colorectal polyps (colorectal polyps; 100 mg twice daily): 11.9% | reduction from base line in the number of colorectal polyps (colorectal polyps; 400 mg twice daily for six months): 28.0% | decrease of the rate of formation of intestinal polyps (intestinal polyps): 70%
